Results: PubChem BioAssay AID2685 (National Center for Advancing Translational Sciences (NCATS), 2010)
The list shows a part of the results. These are further read-outs of the screen, such as a control signal, another cell line or another target. No call is given for them. The list favours compounds with an active or inconclusive main result. Potencies come from curve fits of mixed quality, noted in brackets. Where a SMILES comes first, the peptide text is derived from it. The star is where a group is joined. Boc = CC(C)(C)OC(=O)*

Experiment: qHTS Assay for Lipid Storage Modulators in Drosophila S3 Cells;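 as to cell number change: cells counted by Cell Tracker Red CMTPX staining in the red channel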
Settings: BODIPY lipid droplet fluorescence, 18-24 h; for cell number change: measured here: cell count max response, cells fed with added oleic acid
How it was run: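 Laser-scanning cytometry quantifies lipid droplet accumulation (500–530 nm total intensity; droplet/cell object ratio) in oleic acid-fed (400 uM added) Drosophila S3 cells treated with a concentration series. 20 uM Triacsin C defined 100% inhibition.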

[1] = measured here: cell number channel AC50, cells fed with added oleic acid
[2] = measured here: lipid fluorescence (Fed channel) AC50, cells fed with added oleic acid

Structure (SMILES)	cell number change [%]	AC50 [1]	AC50 [2]
O=C(Nc1ccccc1)NC1CCCCC1	-36.2	0.411 µM [falling, full curve]	–
CN(CC(=O)Nc1cccc(F)c1)C(=O)c1cc([N+](=O)[O-])ccc1N1CCOCC1	-8.21	–	25.9 µM [falling, single point]
O=C(Nc1ccc(Cl)cc1F)C1CC1c1ccccc1 (configuration not stated)	4.11	–	0.411 µM [rising, full curve]
CN(C)c1cccc(C(=O)N2CCC(n3nccc3NC(=O)C3CCOC3)CC2)c1 (configuration not stated)	1.7	–	2.91 µM [rising, single point]
COC(=O)c1nnn(CC(=O)NC(=O)Nc2c(C)cccc2C)c1C(=O)OC	17.8	–	9.2 µM [rising, partial curve, poor fit]
COc1ccc(CCNC(=O)CSc2ncc(C(=O)Nc3ccccc3)c(=O)n2C)cc1	4	–	–
CCSc1nnc(NC(=O)CSc2sc3c(O)cc(=O)[nH]c3c2C#N)s1	21.7	–	29.1 µM [rising, single point]
CCC(c1nnnn1C(C)(C)CC)N(CCCO)Cc1cc2cccc(C)c2[nH]c1=O (configuration not stated)	–	–	0.206 µM [rising, full curve, poor fit]
CN1CCN(C(=O)c2ccc(S(=O)(=O)Nc3ccccc3)cc2)CC1	13.5	–	–
COc1ccc2nc(N)sc2c1	-5.65	–	–
COC(=O)c1ccccc1NC(NC(=O)c1ccco1)C(=O)c1ccc(C)cc1 (configuration not stated)	6.04	–	–
COc1ccc(Br)cc1C(=O)N/N=C/c1ccc2c(c1)n(C)c(=O)n2C	9.17	–	0.517 µM [rising, full curve, poor fit]
CCOC(=O)C1(Cc2ccc(OC)cc2)CCN(C(=O)Cn2cnnn2)CC1	-6.57	–	–
O=C1c2ccccc2C(=O)N1CC1=CCS(=O)(=O)C1	35.3	–	1.3 µM [falling, full curve, poor fit]
Cc1cc(NC(=O)NC2(C(F)(F)F)Oc3ccc(Cl)cc3O2)no1 (configuration not stated)	-59.1	23.1 µM [falling, single point]	29.1 µM [falling, single point]
CC(C)[C@H](NC(=O)C1CCC(CNC(=O)[C@@H]2CCCN2C(=O)OC(C)(C)C)CC1)C(=O)O (some centres not stated)	-1.39	–	29.1 µM [falling, single point]
CC(C)(C)OC(=O)N1CCCC1C(=O)N1CCCC1C(=O)N1CCCC1C(=O)O (stereo not drawn) (Boc-Pro-Pro-Pro-OH; configuration not given here)	-191	18.4 µM [falling, partial curve]	–
Cc1cccc(NC(=O)CSc2nnc(NC(=O)CN3CCCCC3)s2)c1	4.95	–	6.51 µM [falling, single point]
Cc1ccc(NC(=O)c2ccc3ncsc3c2)cc1S(=O)(=O)N(C)C	14.6	–	0.013 µM [rising, full curve, poor fit]
CCC(C(=O)N1CCOCC1)n1nc(C)c2c(C)n(-c3ccccc3)nc2c1=O (configuration not stated)	-0.295	–	1.64 µM [falling, partial curve]

Structure (SMILES)	cell number change [%]	AC50 [1]	AC50 [2]
N/C(Cc1ccc([N+](=O)[O-])cc1)=N\OC(=O)c1ccc(Br)cc1	–	–	18.4 µM [falling, partial curve]
C#CCSc1nc2sc3c(c2c(=O)n1C)CCC3	52.5	29.1 µM [rising, single point]	–
Cc1ccc(S(=O)(=O)N2CCN(C(=O)COC(=O)Cc3cccc(C(F)(F)F)c3)CC2)c(C)c1	-21.5	–	3.66 µM [falling, full curve]
O=C(N/C(=C/C=C\c1ccccc1)C(=O)N1CCOCC1)c1ccc(Br)cc1	6.15	6.51 µM [falling, single point]	6.51 µM [falling, single point]
Cc1cccc(C)c1OCC(O)Cn1c2ccccc2c2ccccc21 (configuration not stated)	-46.8	16.4 µM [falling, partial curve, poor fit]	29.1 µM [falling, single point]
O=C(OCc1nnc(-c2ccccc2)o1)c1ccc(CO)cc1	-1.97	0.366 µM [rising, partial curve, poor fit]	2.59 µM [rising, partial curve, poor fit]
Cc1ccccc1Nc1c([N+](=O)[O-])cncc1[N+](=O)[O-]	-26.8	–	–
COC(=O)c1cn(NC(=O)c2cccc(OC)c2)c(=O)c2ccccc12	-21	–	0.0206 µM [falling, full curve, poor fit]
COc1cccc(CNC(=O)CCNC(=O)Cn2ccc3ccccc3c2=O)c1	-40.6	10.3 µM [falling, partial curve]	0.0146 µM [falling, full curve, poor fit]
COc1cc(Cl)ccc1OCc1cc(C(=O)N2C[C@@H]3CCC[C@H]2C3)no1	13.8	–	–
CS(=O)(=O)c1ccc(Cl)c(NC(=O)COC(=O)Cc2c[nH]c3ccccc23)c1	16.9	–	16.4 µM [rising, single point]
O=C(COc1ccc(Cl)cc1)NCc1nnc(SCC(=O)NC2CCCCC2)o1	–	–	8.2 µM [falling, partial curve]
CC(=O)Nc1c(C)ccc2nsnc12	9.73	–	16.4 µM [falling, partial curve]
O=c1c2c3c(sc2nc2n1CCCS2)CCCC3	-14.7	–	0.146 µM [rising, full curve, poor fit]
Nn1c(SCC(=O)Nc2ccc(N3CCOCC3)cc2)nnc1-c1ccccc1F	3.23	–	–
COC(=O)c1c(C(=O)OC)c(-c2ccc(C)cc2)n2c1CS(=O)(=O)C2	10.4	–	4.61 µM [rising, partial curve, poor fit]
Cc1ccc(C(=O)NCCc2cc3ccc(C)c(C)c3[nH]c2=O)cc1[N+](=O)[O-]	-2.82	0.82 µM [falling, full curve, poor fit]	–
S=c1[nH]nc(-c2cc(-c3ccccn3)nc3ccccc23)o1	–	1.84 µM [rising, partial curve]	0.82 µM [rising, partial curve]
Cc1cc(O)c(C=Nc2ccc(Cl)cn2)c(=O)o1	81.8	29.1 µM [rising, single point]	–
CN(C)C(=O)CSc1ccccc1C(=O)OCC(=O)NC1CC1	24.9	–	9.2 µM [rising, partial curve]

Limited to cell number change [%] (5 entries from above):
Structure (SMILES)	cell number change [%]
Cc1ccc(S(=O)(=O)N2CCN(C(=O)COC(=O)Cc3cccc(C(F)(F)F)c3)CC2)c(C)c1	-21.5
O=C(N/C(=C/C=C\c1ccccc1)C(=O)N1CCOCC1)c1ccc(Br)cc1	6.15
Cc1cccc(C)c1OCC(O)Cn1c2ccccc2c2ccccc21 (configuration not stated)	-46.8
O=C(OCc1nnc(-c2ccccc2)o1)c1ccc(CO)cc1	-1.97
Cc1ccccc1Nc1c([N+](=O)[O-])cncc1[N+](=O)[O-]	-26.8

2 compounds picked at random from those above:
Structure (SMILES)	cell number change [%]	AC50 [1]	AC50 [2]
CN(CC(=O)Nc1cccc(F)c1)C(=O)c1cc([N+](=O)[O-])ccc1N1CCOCC1	-8.21	–	25.9 µM [falling, single point]
Cc1ccc(S(=O)(=O)N2CCN(C(=O)COC(=O)Cc3cccc(C(F)(F)F)c3)CC2)c(C)c1	-21.5	–	3.66 µM [falling, full curve]

(cont.)

Structure (SMILES)	cell number change [%]	AC50 [1]	AC50 [2]
CS(=O)(=O)N1CCN(c2ccc(NC(=O)c3ccccc3)cc2)CC1	-15.3	–	0.00461 µM [falling, full curve, poor fit]
COc1ccc(OCCCC(=O)Nc2cc(S(=O)(=O)N3CCCCC3)ccc2C)cc1	-15.5	–	–
COc1ccc(NCC(=O)N/N=C/c2ccc3c(c2)OCCO3)cc1	10.8	–	29.1 µM [rising, single point]
CN(C)C(CNC(C(=O)Nc1ccc(F)cc1)c1ccccc1)c1ccccc1 (configuration not stated)	-14.1	–	–
CC(C)(C)C(=O)NC1(C(F)(F)F)C(=O)Nc2c1c(=O)[nH]c(=O)n2Cc1ccco1 (configuration not stated)	7.01	–	0.0326 µM [falling, full curve, poor fit]
COc1ccc(NC(=O)C2CC2)cc1S(=O)(=O)N1CCOCC1	-26	0.116 µM [falling, full curve, poor fit]	0.259 µM [rising, full curve]
O=C(Cc1ccc(Br)cc1)N1CCCC1	16.2	–	6.51 µM [rising, single point]
CC(C)(C)c1ccc(C(=O)NCc2nnc(SCC(=O)NC3CCCC3)o2)cc1	-42.1	0.206 µM [falling, partial curve]	14.6 µM [falling, partial curve]
Cc1c(O)ccc2c(CN3CCN(C/C=C/c4ccccc4)CC3)cc(=O)oc12	-16.3	–	0.00461 µM [falling, full curve, poor fit]
CCn1nc(C)c(/C=N/NC(=O)c2nc3nc(C)cc(C)n3n2)c1C	-21.2	–	5.8 µM [falling, full curve]
CN(C(=O)/C(N=Nc1cccc(C(F)(F)F)c1)=C(\O)C(F)(F)F)c1ccccc1	19.9	4.61 µM [rising, single point]	–
Cc1noc(C)c1S(=O)(=O)N1CCC(C(=O)Nc2ccc(OC(F)(F)F)cc2)CC1	–	–	20.6 µM [falling, partial curve]
COCCNc1cc(-c2ccccc2)nc2cc(-c3cccc(F)c3)nn12	-8.84	–	29.1 µM [falling, single point]
O=C(Nc1ccc(Cl)cc1)N1CCN(c2ccc3nnc(-c4ccc(F)cc4)n3n2)CC1	-47.9	29.1 µM [falling, single point]	–
CCCCNC(=O)Nc1ccnn1C1CCCCC1	20.6	0.731 µM [falling, single point]	18.4 µM [falling, single point]
COc1ccc(C(=O)N2CCCC(Nc3ccc(F)cc3)C2)c(OC)c1 (configuration not stated)	34.4	16.4 µM [rising, partial curve, poor fit]	–
CS(=O)(=O)c1ccc(C(=O)N(Cc2ccccc2)c2ccccc2)cc1	14.5	–	0.291 µM [falling, full curve, poor fit]
CCc1cc(=O)oc2cc(OCC(=O)O)c(Cl)cc12	-119	25.9 µM [falling, partial curve]	0.651 µM [falling, full curve]
O=C1CCCC2=C1C(c1ccc(O)cc1)c1c(ccc3ccccc13)N2 (configuration not stated)	–	–	0.58 µM [falling, single point]
